Results taken from the supplement of paper PMC12889115.
The other results are listed elsewhere or left out. These are raw signals, not scaled to a control.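 Primary screen: polymyxin B was added at a level permeabilizing Salmonella outer membranes while sparing inner membranes. DMSO wells, both with and without polymyxin B, established maximum growth. Plate-to-plate variation meant each plate was ranked on its own, and the lowest-OD600 compounds were selected as hits.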

Tested on: Salmonella enterica serovar Typhimurium SL1344
Assay: bacterial growth OD600 after 18 h with compound and polymyxin B; higher = more bacterial growth (less inhibition)
Conditions: 50 µM, Mueller-Hinton broth

Row | SMILES | bacterial growth OD600 (polymyxin B 0.75 µg/mL) | bacterial growth OD600 (polymyxin B 1 µg/mL)
1 | COc1ccc(F)c(CC2(CCC(=O)NC3Cc4ccccc4C3)CCC(=O)N2)c1 (stereo not given) | 0.91 | 
2 | CCCc1cc(CNC(=O)c2ccc(N(C)C)nc2)on1 |  | 0.902
3 | CCOC(=O)CCNC(=O)CCc1nnc(Cc2cccc(C)c2)o1 | 0.921 | 
4 | CN(Cc1ccc(Oc2ccccc2)cc1)CC1(O)CCCN(C)C1=O (stereo not given) |  | 0.898
5 | O=C(NCc1ccc(Cl)s1)C1CCC(=O)N(CCc2cccc(F)c2)C1 (stereo not given) |  | 0.66
6 | CCCn1cc(CN2CCC(Oc3cc(OC)ccc3C(=O)NC3CC3)CC2)c(C)n1 |  | 1.24
7 | COCCN1C(=O)CC(CC(=O)N2CCN(C3CCCCC3)C(=O)C2)(c2ccccc2OC)C1=O (stereo not given) | 0.779 | 
8 | CC(C)CCn1c(CN(C)CCc2ccccc2)cnc1S(=O)(=O)C(C)C |  | 0.357
9 | CCOC(=O)N1CCC(N2CCCC(CNS(=O)(=O)c3ccc(OC)cc3)C2)CC1 (stereo not given) |  | 1.07
10 | CCOC(=O)N1CCN(C(=O)c2ccc(N3CCC(NCc4cccc(F)c4F)CC3)cc2)CC1 | 0.845 | 
11 | O=C(NCC1CCCN(C(=O)c2cccnc2)C1)c1ccc(-c2ccccc2)cc1 (stereo not given) |  | 0.823
12 | COc1cccc(OC)c1-c1cnnc(N2CCC(C(C)=O)(c3ccccc3)CC2)n1 |  | 0.014
13 | CCOC(=O)C1CCCCN1C1CCN(c2nc(C)c3ccc(OC)cc3n2)CC1 (stereo not given) | 0.892 | 
14 | CCN(CCn1cccn1)C(=O)c1cc(COc2cccc3cnccc23)on1 |  | 0.874
15 | CC(C)CC(=O)Nc1ccnn1C1CCN(Cc2cc(CC(C)C)[nH]n2)CC1 |  | 1.23
16 | Cc1ccc(C(=O)N2CCc3c(cnc(C)c3CNC(=O)c3ccccc3F)C2)c(C)c1 | 0.921 | 
17 | CC(C)CN(C)C(=O)CC1(c2cccc(C(F)(F)F)c2)CC(=O)N(C2CC2)C1=O (stereo not given) | 0.753 | 
18 | CC(C)c1noc(-c2ccc(NCCOc3cccnc3)nc2)n1 |  | 0.995
19 | Cc1nc(N2CCCCCCC2)ncc1C(C)NCc1cccnc1 (stereo not given) |  | 0.048
20 | Cc1cccc(C(=O)NC2CC(=O)N(Cc3cccc(F)c3)C2)n1 (stereo not given) |  | 0.804

Pulled one by one from above, 2 records:
Row | SMILES | bacterial growth OD600 (polymyxin B 0.75 µg/mL) | bacterial growth OD600 (polymyxin B 1 µg/mL)
20 | Cc1cccc(C(=O)NC2CC(=O)N(Cc3cccc(F)c3)C2)n1 (stereo not given) |  | 0.804
19 | Cc1nc(N2CCCCCCC2)ncc1C(C)NCc1cccnc1 (stereo not given) |  | 0.048
